Values quoted from earlier work in patent publication US20080095711A1, “Modulators of Pulmonary Hypertension” (priority 2006, published 2008).
Read-outs that look alike come from different tables or passages of the source. For at least one compound, name, drawing or mass did not settle the structure.

Experiments:
isolated perfused lungs = conditions: Stephenson et al. 2003; cited from earlier work
[1] = test system: isolated pressurized intrapulmonary arterial vessels; conditions: rabbits; Zhu et al. 2000, Yaghi et al. 2001; cited from earlier work
[2] = test system: isolated pressurized intrapulmonary arterial vessels; conditions: rats; Zhu et al. 2000, Yaghi et al. 2001; cited from earlier work
[3] = test system: canine pulmonary arteries; conditions: under certain conditions; Stephenson et al. 1998; cited from earlier work

SMILES: CCCCC/C=C\C/C=C\C/C=C\CC1OC1CCCC(=O)O (stereo not shown) [5,6-EET, 5,6-epoxyeicosatrienoic acid]
- effect on pulmonary vessel resistance (isolated perfused lungs): increased
- contraction of isolated pressurized intrapulmonary arterial vessels [1]: contract
- contraction of isolated pressurized intrapulmonary arterial vessels [2]: contract
- effect in canine pulmonary arteries [3]: vasodilatory effects
